Measured values published in the supplement of paper PMC10849652.
Some of the results follow.

Amino acid sequences for entries named in this document (tags omitted). A change or cut given only in a name is not applied to a line headed by its entry.
UniProt Q5BKY9: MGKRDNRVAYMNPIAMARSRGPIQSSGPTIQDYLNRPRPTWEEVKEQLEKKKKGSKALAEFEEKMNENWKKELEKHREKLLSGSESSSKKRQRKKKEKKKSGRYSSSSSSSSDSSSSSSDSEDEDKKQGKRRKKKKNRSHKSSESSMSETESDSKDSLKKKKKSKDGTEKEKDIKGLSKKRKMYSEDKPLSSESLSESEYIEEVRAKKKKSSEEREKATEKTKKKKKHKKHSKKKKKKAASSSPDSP
UniProt O75063: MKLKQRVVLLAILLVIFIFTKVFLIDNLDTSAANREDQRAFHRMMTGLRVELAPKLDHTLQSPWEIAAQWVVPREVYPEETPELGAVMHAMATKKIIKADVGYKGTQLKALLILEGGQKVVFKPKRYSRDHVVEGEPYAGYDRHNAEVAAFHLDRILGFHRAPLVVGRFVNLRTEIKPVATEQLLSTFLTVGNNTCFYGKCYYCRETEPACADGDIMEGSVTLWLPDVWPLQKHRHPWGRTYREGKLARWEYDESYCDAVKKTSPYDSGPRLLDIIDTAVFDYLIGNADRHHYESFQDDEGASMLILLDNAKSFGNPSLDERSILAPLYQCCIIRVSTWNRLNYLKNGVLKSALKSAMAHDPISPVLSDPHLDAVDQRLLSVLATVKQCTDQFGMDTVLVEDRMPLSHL
UniProt A0FGR8: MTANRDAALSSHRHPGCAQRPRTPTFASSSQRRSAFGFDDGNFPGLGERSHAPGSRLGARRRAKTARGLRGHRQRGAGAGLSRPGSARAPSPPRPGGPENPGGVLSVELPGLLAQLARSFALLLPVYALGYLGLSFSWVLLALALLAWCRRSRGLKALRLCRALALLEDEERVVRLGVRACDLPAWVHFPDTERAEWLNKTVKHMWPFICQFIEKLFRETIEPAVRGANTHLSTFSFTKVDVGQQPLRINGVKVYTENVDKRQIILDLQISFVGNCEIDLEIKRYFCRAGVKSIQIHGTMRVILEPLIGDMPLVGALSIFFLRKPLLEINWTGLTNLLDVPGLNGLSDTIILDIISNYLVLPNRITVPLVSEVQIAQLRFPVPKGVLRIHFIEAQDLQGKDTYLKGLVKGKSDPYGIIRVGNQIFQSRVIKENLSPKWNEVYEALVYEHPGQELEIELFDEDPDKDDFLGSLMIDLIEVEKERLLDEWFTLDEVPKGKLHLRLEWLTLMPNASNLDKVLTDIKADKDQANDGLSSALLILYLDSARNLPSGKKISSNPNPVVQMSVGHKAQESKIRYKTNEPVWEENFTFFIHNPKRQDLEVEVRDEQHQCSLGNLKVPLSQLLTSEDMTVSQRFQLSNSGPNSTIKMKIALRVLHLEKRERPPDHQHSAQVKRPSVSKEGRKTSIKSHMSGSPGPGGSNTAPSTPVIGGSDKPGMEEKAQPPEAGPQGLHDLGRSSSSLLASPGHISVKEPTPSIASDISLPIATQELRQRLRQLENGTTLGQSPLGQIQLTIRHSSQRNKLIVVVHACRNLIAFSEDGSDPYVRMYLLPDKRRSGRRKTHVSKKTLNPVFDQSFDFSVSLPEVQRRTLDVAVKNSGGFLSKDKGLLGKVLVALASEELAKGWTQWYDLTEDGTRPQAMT
UniProt Q9UF33: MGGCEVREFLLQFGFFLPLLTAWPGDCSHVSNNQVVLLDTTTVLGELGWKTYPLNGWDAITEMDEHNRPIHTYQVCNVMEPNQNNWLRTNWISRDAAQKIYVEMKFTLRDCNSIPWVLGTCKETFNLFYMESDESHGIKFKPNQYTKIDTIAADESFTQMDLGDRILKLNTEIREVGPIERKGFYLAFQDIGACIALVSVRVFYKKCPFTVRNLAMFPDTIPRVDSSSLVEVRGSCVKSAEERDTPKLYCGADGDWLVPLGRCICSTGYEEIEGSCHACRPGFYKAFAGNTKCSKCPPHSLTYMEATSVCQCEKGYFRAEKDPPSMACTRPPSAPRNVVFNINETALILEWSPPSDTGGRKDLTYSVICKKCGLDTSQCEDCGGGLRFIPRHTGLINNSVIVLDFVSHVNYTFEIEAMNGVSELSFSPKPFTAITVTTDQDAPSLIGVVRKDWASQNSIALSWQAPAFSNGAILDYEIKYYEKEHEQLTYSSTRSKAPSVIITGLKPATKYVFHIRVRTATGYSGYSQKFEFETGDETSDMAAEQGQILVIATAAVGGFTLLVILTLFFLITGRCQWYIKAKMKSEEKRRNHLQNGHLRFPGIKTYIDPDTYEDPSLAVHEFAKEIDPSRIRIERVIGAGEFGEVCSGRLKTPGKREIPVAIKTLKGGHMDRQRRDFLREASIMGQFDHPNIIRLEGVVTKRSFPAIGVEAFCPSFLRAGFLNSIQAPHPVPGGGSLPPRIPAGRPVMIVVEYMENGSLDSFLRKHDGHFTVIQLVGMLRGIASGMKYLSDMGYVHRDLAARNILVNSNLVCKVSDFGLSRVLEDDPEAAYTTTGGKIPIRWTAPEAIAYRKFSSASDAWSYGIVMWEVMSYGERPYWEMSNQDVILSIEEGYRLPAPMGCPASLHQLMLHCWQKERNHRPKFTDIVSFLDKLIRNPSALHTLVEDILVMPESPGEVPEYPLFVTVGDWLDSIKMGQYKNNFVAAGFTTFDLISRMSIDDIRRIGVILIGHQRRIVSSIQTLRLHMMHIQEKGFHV
UniProt Q96GK7: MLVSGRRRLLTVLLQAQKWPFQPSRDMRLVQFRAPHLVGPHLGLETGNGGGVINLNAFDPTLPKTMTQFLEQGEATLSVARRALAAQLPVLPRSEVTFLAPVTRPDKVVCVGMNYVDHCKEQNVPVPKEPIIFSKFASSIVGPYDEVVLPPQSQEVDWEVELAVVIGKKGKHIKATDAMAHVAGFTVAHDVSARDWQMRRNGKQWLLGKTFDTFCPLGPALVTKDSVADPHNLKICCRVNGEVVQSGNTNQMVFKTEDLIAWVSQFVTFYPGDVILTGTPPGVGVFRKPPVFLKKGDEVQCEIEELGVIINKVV
UniProt Q86V87: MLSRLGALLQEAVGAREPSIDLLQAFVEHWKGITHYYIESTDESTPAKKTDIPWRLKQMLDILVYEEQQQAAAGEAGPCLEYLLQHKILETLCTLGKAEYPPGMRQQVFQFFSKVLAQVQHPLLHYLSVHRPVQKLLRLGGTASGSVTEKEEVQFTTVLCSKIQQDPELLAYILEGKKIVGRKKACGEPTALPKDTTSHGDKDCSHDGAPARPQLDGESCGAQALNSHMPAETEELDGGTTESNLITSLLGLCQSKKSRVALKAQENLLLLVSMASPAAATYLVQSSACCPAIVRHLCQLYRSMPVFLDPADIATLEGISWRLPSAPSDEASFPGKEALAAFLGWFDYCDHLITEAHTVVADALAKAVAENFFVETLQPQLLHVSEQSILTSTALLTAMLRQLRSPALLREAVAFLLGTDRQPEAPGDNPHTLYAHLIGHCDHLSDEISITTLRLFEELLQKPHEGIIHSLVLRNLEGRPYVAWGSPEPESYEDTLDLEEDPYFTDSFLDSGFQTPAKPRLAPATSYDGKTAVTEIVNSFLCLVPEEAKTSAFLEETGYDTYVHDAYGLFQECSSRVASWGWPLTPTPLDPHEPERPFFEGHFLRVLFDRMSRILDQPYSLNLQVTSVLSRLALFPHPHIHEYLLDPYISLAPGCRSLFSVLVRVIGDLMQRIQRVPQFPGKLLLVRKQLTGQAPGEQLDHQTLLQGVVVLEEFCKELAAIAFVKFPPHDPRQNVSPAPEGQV
UniProt Q7Z309: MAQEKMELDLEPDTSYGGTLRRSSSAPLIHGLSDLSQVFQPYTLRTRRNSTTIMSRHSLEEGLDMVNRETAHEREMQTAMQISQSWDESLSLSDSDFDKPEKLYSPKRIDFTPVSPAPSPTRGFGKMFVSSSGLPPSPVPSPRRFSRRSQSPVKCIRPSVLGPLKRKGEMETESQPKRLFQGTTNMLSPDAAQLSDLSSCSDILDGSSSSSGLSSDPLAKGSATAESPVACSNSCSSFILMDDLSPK
UniProt P16930: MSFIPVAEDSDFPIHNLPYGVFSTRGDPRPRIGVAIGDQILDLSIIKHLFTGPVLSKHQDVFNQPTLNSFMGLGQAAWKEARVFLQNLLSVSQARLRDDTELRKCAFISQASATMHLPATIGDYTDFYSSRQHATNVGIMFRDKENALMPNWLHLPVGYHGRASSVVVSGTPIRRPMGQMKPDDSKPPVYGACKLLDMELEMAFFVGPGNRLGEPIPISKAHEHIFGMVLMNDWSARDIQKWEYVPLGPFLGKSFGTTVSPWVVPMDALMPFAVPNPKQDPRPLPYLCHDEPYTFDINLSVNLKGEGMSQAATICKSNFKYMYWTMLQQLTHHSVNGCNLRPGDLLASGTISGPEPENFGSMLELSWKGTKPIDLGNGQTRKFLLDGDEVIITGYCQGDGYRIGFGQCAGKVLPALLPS
UniProt Q5RKV6, whole entry, looked up: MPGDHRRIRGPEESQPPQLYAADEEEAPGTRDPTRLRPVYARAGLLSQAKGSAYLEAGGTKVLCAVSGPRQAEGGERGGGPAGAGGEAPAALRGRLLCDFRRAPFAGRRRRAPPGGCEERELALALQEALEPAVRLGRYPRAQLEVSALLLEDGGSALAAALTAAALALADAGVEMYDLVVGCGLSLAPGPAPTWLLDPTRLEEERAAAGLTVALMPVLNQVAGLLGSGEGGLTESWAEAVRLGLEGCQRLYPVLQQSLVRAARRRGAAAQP
UniProt Q86YB8: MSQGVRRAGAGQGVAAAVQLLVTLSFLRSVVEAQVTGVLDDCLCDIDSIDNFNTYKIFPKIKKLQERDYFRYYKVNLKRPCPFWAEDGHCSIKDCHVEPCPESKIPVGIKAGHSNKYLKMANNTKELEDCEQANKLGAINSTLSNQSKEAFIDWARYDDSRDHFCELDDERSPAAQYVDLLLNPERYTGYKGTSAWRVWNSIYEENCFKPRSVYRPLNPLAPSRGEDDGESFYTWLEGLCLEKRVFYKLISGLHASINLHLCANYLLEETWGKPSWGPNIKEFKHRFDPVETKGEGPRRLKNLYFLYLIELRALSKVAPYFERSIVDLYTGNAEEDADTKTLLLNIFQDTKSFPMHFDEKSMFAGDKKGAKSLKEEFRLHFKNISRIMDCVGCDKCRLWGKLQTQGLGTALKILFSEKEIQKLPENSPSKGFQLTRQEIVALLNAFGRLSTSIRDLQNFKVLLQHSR
UniProt P38117: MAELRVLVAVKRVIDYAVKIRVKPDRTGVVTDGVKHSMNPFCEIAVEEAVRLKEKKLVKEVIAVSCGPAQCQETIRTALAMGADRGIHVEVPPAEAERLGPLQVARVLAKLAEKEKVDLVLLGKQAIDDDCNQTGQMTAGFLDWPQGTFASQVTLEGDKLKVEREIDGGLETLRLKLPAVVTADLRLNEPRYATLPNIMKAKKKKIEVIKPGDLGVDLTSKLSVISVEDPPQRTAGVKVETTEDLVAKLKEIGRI
UniProt P84090, whole entry, looked up: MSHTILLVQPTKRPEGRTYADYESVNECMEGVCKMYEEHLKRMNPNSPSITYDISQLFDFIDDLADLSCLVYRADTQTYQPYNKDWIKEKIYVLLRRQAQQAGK
UniProt O95571: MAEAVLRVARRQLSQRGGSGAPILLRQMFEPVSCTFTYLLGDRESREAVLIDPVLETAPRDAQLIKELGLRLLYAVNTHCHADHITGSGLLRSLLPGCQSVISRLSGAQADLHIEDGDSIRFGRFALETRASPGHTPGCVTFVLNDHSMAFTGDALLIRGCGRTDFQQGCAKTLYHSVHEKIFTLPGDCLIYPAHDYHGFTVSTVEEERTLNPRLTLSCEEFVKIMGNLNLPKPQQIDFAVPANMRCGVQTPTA
UniProt P42566: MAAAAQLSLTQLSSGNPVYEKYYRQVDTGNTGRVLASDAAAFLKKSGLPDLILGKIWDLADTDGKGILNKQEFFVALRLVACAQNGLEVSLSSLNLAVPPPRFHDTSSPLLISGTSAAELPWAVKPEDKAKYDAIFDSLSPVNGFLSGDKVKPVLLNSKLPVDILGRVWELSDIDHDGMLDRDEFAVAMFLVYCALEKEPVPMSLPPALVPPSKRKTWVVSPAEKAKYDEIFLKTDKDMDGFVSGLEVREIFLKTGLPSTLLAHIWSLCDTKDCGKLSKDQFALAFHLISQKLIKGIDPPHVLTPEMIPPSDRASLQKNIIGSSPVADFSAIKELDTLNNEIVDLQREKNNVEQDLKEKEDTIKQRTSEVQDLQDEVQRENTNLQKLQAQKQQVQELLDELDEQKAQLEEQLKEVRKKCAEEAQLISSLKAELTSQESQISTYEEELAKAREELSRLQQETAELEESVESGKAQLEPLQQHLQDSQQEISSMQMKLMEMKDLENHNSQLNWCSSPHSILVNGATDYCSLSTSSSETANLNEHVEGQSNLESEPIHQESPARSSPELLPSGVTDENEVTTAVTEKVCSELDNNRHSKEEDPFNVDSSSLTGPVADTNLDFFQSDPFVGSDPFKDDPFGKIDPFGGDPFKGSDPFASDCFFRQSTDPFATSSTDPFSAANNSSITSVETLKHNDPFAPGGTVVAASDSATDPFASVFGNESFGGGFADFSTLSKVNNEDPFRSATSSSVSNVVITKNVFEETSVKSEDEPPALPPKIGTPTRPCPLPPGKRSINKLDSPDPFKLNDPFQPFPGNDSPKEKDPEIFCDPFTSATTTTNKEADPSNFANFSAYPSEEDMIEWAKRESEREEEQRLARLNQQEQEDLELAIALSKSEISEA

compound: c1cn2cc(-c3ccc4cn[nH]c4c3)nc(Nc3ccc(N4CCOCC4)cc3)c2n1 [entospletinib]; assay: log2 fold change, soluble protein after heating vs DMSO (PISA); higher = thermal stabilisation; K562 cells, 10 uM, 30 min; active = over 0.2 and 3.5 SD of the protein, either way, in both replicates (recomputed)
Method in brief: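 For each measurement, 10 μM compound was applied for 30 min to K562 cells at 2×10^6 cells/mL. Aliquots were heated for 3 min across 48°C-58°C, pooled, and extracted in PBS with 0.5% NP-40 at 4°C; the supernatant after 21,000xg for 90 min was soluble protein. This was quantified by TMTpro 16plex LC-MS/MS with channel sums equalised, and thermal stability was reported relative to control samples from duplicates, on a log2 fold-change scale.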

log2 fold change, inactive:
ERP44 (UniProt Q9BS26) 0.01
ERAP1 isoform 2 (UniProt Q9NZ08) 0.004
FAM133B (UniProt Q5BKY9) -0.023
FAM20B (UniProt O75063) -0.062
ETFDH (UniProt Q16134) 0.002
ESYT2 isoform 2 (UniProt A0FGR8) -0.009
EPS8L2 isoform 3 (UniProt Q9H6S3) 0.034
EPHA6 (UniProt Q9UF33) 0.745
ERLEC1 (UniProt Q96DZ1) -0.009
FAHD2A (UniProt Q96GK7) 0.026
FAM160B2 (UniProt Q86V87) 0.284
FAM122B isoform 2 (UniProt Q7Z309) 0.074
ETF1 (UniProt P62495) -0.029
FAHD1 (UniProt Q6P587) -0.008
FAH isoform 2 (UniProt P16930) -0.209
EXOSC6 (UniProt Q5RKV6) 0.003
ERGIC3 isoform 3 (UniProt Q9Y282) 0.01
ERO1B (UniProt Q86YB8) -0.246
EPN1 (UniProt Q9Y6I3) -0.003
EPHX1 (UniProt P07099) 0.022
EXOSC8 (UniProt Q96B26) -0.014
ETFB (UniProt P38117) 0.054
ERH (UniProt P84090) 0.063
ERGIC1 (UniProt Q969X5) -0.025
EPM2AIP1 (UniProt Q7L775) -0.012
ETHE1 (UniProt O95571) 0.049
F10 (UniProt P00742) 0.016
ERVK3-1, A0A0U1RQV1 0.014
EPS15 (UniProt P42566) -0.008
ETF1 isoform 2 (UniProt P62495) 0.14

Two records drawn at random from those above, as already listed:
log2 fold change, inactive:
ERAP1 isoform 2 (UniProt Q9NZ08) 0.004
FAM122B isoform 2 (UniProt Q7Z309) 0.074
